The list shows only some results of the screen, not a fair sample: its compounds were picked by chemical class. Other doses and runs of a compound may be missing. T/C is the treated group as % of the vehicle group. Schedule codes are those of the source, taken here to give the interval after Q, in days (D) or hours (H), and the number of doses after X. Some entries were tested several times; the results are listed from low to high. Some T/C values carry the count of animals alive at the toxicity check; where neither a count nor a note follows, no animal had died by that day. Some entries give survivors of the animals treated and no T/C: the source holds a T/C of zero for them, seemingly a mark for toxic or unscored doses. Some survivor counts are full or nearly so, which does not show that the dose was tolerated: survival well below the control is almost never listed, so the zero probably covers shortened survival too. Counts of survivors are from the toxicity check (mostly the fifth day) where no day follows; animals may have died later. Where survival is the endpoint, the PubChem record calls one and a half times the control and up active, and a quarter to a half above the control has no call in these data; cut-offs in other NCI protocols can differ. Some T/C values are followed by the survivors on the day toxicity was checked, most often the fifth; where neither a count nor a note follows, no animal had died by that day. Additions like (4×) say how often a value occurs here.

Our source for the T/C and survivor count values is PubChem BioAssay AID194 (DTP/NCI, 2004).

For the test, the system named is BDF1 mice, B16 melanoma s.c., survival/tumor T/C. The test can be described thus: NCI In Vivo Anticancer Drug Screen. Data for tumor model B16 Melanoma (subcutaneous) in B6D2F1 (BDF1) mice. How it is done: The antitumor activity of compounds was measured in mice bearing transplantable tumors. Survival or tumor size were measured and the results are expressed as the measurement made in the treated group (T) divided by the measurement made in the vehicle treated control group (C). The tumor model used in this assay is B16 Melanoma (subcutaneous) in B6D2F1 (BDF1) mice

Where [1] appears, read: T/C endpoint: median survival time, dose: 25.0 mg/kg/injection, schedule: Q01DX009 (ip), vehicle: Klucel (hydroxypropylcellulose) (HPC), higher T/C = longer survival.
The mark [2] stands for this setting: T/C endpoint: median survival time, dose: 100.0 mg/kg/injection, schedule: Q01DX009 (ip), vehicle: Klucel (hydroxypropylcellulose) (HPC), higher T/C = longer survival.
[3] abbreviates: T/C endpoint: median survival time, dose: 200.0 mg/kg/injection, schedule: Q01DX009 (ip), vehicle: Klucel (hydroxypropylcellulose) (HPC), higher T/C = longer survival.
Setting [4] is: T/C endpoint: median survival time, dose: 200.0 mg/kg/injection, schedule: Q01DX009 (ip), vehicle: saline with Tween-80, higher T/C = longer survival.
Setting [5] is: T/C endpoint: median survival time, dose: 200.0 mg/kg/injection, schedule: Q08DX002 (ip), vehicle: saline with Tween-80, higher T/C = longer survival.
Where [6] appears, read: T/C endpoint: median survival time, dose: 400.0 mg/kg/injection, schedule: Q08DX002 (ip), vehicle: Klucel (hydroxypropylcellulose) (HPC), higher T/C = longer survival.
Where [7] appears, read: T/C endpoint: median survival time, dose: 800.0 mg/kg/injection, schedule: Q08DX002 (ip), vehicle: Klucel (hydroxypropylcellulose) (HPC), higher T/C = longer survival.
The mark [8] stands for this setting: T/C endpoint: median survival time, dose: 800.0 mg/kg/injection, schedule: Q08DX002 (ip), vehicle: saline with Tween-80, higher T/C = longer survival.

On to `NC(=O)c1[nH]cnc1/N=N\N(CCCl)CCCl`, for which the T/C is 98 % of control (T/C endpoint: median survival time, dose: 12.5 mg/kg/injection, schedule: Q01DX009 (ip), vehicle: Klucel (hydroxypropylcellulose) (HPC), higher T/C = longer survival); 111 [5 of 6 alive], 112, 114, 130, 148 % of control under setting [1]; 91 and 108 % of control (T/C endpoint: median survival time, dose: 25.0 mg/kg/injection, schedule: Q01DX009 (ip), vehicle: saline with Tween-80, higher T/C = longer survival); 100, 112, 113, 114 [5 of 6 alive], 127, 128 % of control (T/C endpoint: median survival time, dose: 50.0 mg/kg/injection, schedule: Q01DX009 (ip), vehicle: Klucel (hydroxypropylcellulose) (HPC), higher T/C = longer survival); 112 and 120 % of control (T/C endpoint: median survival time, dose: 50.0 mg/kg/injection, schedule: Q01DX009 (ip), vehicle: saline with Tween-80, higher T/C = longer survival); 109, 118, 121, 150, 170 % of control under setting [2]. In addition, the T/C is 93 [5 of 6 alive] and 147 % of control (T/C endpoint: median survival time, dose: 100.0 mg/kg/injection, schedule: Q01DX009 (ip), vehicle: saline with Tween-80, higher T/C = longer survival); 88, 98, 108, 118, 121, 137 % of control (T/C endpoint: median survival time, dose: 100.0 mg/kg/injection, schedule: Q08DX002 (ip), vehicle: Klucel (hydroxypropylcellulose) (HPC), higher T/C = longer survival); 102 and 125 % of control (T/C endpoint: median survival time, dose: 100.0 mg/kg/injection, schedule: Q08DX002 (ip), vehicle: saline with Tween-80, higher T/C = longer survival); 100 (2×) and 125 % of control under setting [3]; 104 % of control under setting [4]; 94, 95, 104, 112, 115, 118 % of control (T/C endpoint: median survival time, dose: 200.0 mg/kg/injection, schedule: Q08DX002 (ip), vehicle: Klucel (hydroxypropylcellulose) (HPC), higher T/C = longer survival). For the same compound, the T/C by setting is: under setting [5], 108 % of control; under setting [6], 100, 122, 125, 139, 150 % of control; (T/C endpoint: median survival time, dose: 400.0 mg/kg/injection, schedule: Q08DX002 (ip), vehicle: saline with Tween-80, higher T/C = longer survival) 129 and 135 % of control; under setting [7], 150 % of control; under setting [8], 93 % of control; (T/C endpoint: median tumor weight (est.), dose: 25.0 mg/kg/injection, schedule: Q01DX009 (ip), vehicle: Klucel (hydroxypropylcellulose) (HPC), evaluated on day 14, higher T/C = larger tumour) 25 % of control. The T/C was 45 and 65 % of control (T/C endpoint: median tumor weight (est.), dose: 25.0 mg/kg/injection, schedule: Q01DX009 (ip), vehicle: saline with Tween-80, evaluated on day 15, higher T/C = larger tumour); 36 % of control [5 of 6 alive] (T/C endpoint: median tumor weight (est.), dose: 50.0 mg/kg/injection, schedule: Q01DX009 (ip), vehicle: Klucel (hydroxypropylcellulose) (HPC), evaluated on day 14, higher T/C = larger tumour); 65 and 66 % of control (T/C endpoint: median tumor weight (est.), dose: 50.0 mg/kg/injection, schedule: Q01DX009 (ip), vehicle: saline with Tween-80, evaluated on day 15, higher T/C = larger tumour); 5 % of control (T/C endpoint: median tumor weight (est.), dose: 100.0 mg/kg/injection, schedule: Q01DX009 (ip), vehicle: Klucel (hydroxypropylcellulose) (HPC), evaluated on day 14, higher T/C = larger tumour); 46 and 71 % of control (T/C endpoint: median tumor weight (est.), dose: 100.0 mg/kg/injection, schedule: Q01DX009 (ip), vehicle: saline with Tween-80, evaluated on day 15, higher T/C = larger tumour); 61 % of control (T/C endpoint: median tumor weight (est.), dose: 100.0 mg/kg/injection, schedule: Q08DX002 (ip), vehicle: Klucel (hydroxypropylcellulose) (HPC), evaluated on day 14, higher T/C = larger tumour). Also, the T/C (T/C endpoint: median tumor weight (est.), dose: 100.0 mg/kg/injection, schedule: Q08DX002 (ip), vehicle: saline with Tween-80, evaluated on day 15, higher T/C = larger tumour) was 94 and 100 % of control; the T/C (T/C endpoint: median tumor weight (est.), dose: 200.0 mg/kg/injection, schedule: Q08DX002 (ip), vehicle: Klucel (hydroxypropylcellulose) (HPC), evaluated on day 14, higher T/C = larger tumour) is 55 % of control; the T/C (T/C endpoint: median tumor weight (est.), dose: 200.0 mg/kg/injection, schedule: Q08DX002 (ip), vehicle: saline with Tween-80, evaluated on day 15, higher T/C = larger tumour) is 60 and 65 % of control; the T/C (T/C endpoint: median tumor weight (est.), dose: 400.0 mg/kg/injection, schedule: Q08DX002 (ip), vehicle: Klucel (hydroxypropylcellulose) (HPC), evaluated on day 14, higher T/C = larger tumour) is 9 % of control [5 of 6 alive]; the T/C (T/C endpoint: median tumor weight (est.), dose: 400.0 mg/kg/injection, schedule: Q08DX002 (ip), vehicle: saline with Tween-80, evaluated on day 15, higher T/C = larger tumour) was 22 and 28 % of control; the T/C (T/C endpoint: median tumor weight (est.), dose: 800.0 mg/kg/injection, schedule: Q08DX002 (ip), vehicle: saline with Tween-80, evaluated on day 15, higher T/C = larger tumour) was 44 % of control. Also, the survivor count reads like this: under setting [1], 5 of 6; under setting [2], 6 of 6; under setting [3], 6 of 6; under setting [4], 6 of 6; under setting [5], 5 of 6; (T/C endpoint: median survival time, dose: 400.0 mg/kg/injection, schedule: Q01DX009 (ip), vehicle: Klucel (hydroxypropylcellulose) (HPC), higher T/C = longer survival) 5 of 6 and 6 of 6. In addition, the survivor count runs as follows: (T/C endpoint: median survival time, dose: 400.0 mg/kg/injection, schedule: Q01DX009 (ip), vehicle: saline with Tween-80, higher T/C = longer survival) 4 of 5 and 5 of 6; under setting [6], 6 of 6; under setting [7], 6 of 6; under setting [8], 6 of 6.
With `O=P(Nc1ncccn1)(N1CC1)N1CC1`, the T/C by setting is: (T/C endpoint: median survival time, dose: 3.12 mg/kg/injection, schedule: Q01DX009 (ip), vehicle: saline, higher T/C = longer survival) 103 % of control; (T/C endpoint: median survival time, dose: 6.25 mg/kg/injection, schedule: Q01DX009 (ip), vehicle: saline, higher T/C = longer survival) 118 % of control; (T/C endpoint: median survival time, dose: 12.5 mg/kg/injection, schedule: Q01DX009 (ip), vehicle: saline, higher T/C = longer survival) 122 % of control. Moreover, the survivor count by setting is: (T/C endpoint: median survival time, dose: 25.0 mg/kg/injection, schedule: Q01DX009 (ip), vehicle: saline, higher T/C = longer survival) 10 of 10; (T/C endpoint: median survival time, dose: 50.0 mg/kg/injection, schedule: Q01DX009 (ip), vehicle: saline, higher T/C = longer survival) 8 of 10; (T/C endpoint: median survival time, dose: 100.0 mg/kg/injection, schedule: Q01DX009 (ip), vehicle: saline, higher T/C = longer survival) 0 of 10.
